These are yes or no findings as the source states them, for the method shown. In cells and extracts the contact can be indirect. Some entries that bind do so weakly or less than the wild type. Where a sequence is shown, tags or fusion partners need not be part of it.
T1: cLUC-COP1 (Arabidopsis) (UniProt P43254)
T1 sequence: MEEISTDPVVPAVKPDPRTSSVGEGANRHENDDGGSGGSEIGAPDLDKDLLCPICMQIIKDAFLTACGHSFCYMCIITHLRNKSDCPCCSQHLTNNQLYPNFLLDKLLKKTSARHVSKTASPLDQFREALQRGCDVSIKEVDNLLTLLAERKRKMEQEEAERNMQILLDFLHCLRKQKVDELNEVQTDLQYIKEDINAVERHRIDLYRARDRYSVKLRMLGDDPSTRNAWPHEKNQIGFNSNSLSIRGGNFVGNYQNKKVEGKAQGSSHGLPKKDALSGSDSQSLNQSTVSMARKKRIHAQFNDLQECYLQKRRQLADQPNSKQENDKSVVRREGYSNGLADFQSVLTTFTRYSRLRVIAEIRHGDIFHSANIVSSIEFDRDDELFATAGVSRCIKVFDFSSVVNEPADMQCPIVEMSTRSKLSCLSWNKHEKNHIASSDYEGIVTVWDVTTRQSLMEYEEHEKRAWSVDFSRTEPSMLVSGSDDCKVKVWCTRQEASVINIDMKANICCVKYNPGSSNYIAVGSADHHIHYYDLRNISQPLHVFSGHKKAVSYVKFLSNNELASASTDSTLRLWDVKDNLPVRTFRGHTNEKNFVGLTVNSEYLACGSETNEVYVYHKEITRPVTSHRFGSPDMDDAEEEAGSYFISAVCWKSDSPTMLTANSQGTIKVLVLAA

T2: YFP^N-COP1 (Arabidopsis) (UniProt P43254)
T2 sequence: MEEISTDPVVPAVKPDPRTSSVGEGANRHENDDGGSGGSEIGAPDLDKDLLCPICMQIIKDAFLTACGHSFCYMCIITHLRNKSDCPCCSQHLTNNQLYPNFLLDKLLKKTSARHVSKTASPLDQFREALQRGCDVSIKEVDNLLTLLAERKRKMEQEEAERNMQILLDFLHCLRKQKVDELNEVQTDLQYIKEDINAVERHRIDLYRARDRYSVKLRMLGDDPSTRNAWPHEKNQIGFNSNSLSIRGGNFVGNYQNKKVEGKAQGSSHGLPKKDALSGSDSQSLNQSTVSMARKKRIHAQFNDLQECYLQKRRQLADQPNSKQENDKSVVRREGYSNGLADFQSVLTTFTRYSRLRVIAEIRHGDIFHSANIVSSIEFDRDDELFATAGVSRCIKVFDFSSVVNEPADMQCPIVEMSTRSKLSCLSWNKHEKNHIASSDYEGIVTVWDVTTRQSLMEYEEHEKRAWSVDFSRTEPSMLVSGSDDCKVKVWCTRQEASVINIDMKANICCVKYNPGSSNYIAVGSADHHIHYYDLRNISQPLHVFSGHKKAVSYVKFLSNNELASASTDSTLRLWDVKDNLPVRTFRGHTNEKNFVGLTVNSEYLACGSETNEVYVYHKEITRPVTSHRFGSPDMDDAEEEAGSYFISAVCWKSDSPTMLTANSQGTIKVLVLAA


Columns and labels:
cLUC-COP1 (Arabidopsis) = target: T1, cLUC-COP1 (Arabidopsis); test: split reporter; firefly luciferase complementation imaging (LCI) in Nicotiana benthamiana leaves; COP1 forms fused with cLUC, GH3.5 with nLUC; 3 d in the dark after infiltration
YFP^N-COP1 (Arabidopsis) = target: T2, YFP^N-COP1 (Arabidopsis); test: split reporter; BiFC in Arabidopsis protoplasts; YFP^N-COP1 and YFP^C-GH3.5; 14 h in the dark at 22 °C; confocal microscopy, H2B-mCherry as nuclear marker

| binding (cLUC-COP1 (Arabidopsis)) | binding (YFP^N-COP1 (Arabidopsis)) | Binder |
| --- | --- | --- |
| binds |  | GH3.5-nLUC (enzyme, UniProt O81829 1-612) MPEAPKKESLEVFDLTLDQKNKQKLQLIEELTSNADQVQRQVLEEILTRNADVEYLRRHDLNGRTDRETFKNIMPVITYEDIEPEINRIANGDKSPILSSKPISEFLTSSGTSGGERKLMPTIEEELDRRSLLYSLLMPVMSQFVPGLENGKGMYFLFIKSESKTPGGLPARPVLTSYYKSSHFKERPYDPYTNYTSPNETILCSDSYQSMYSQMLCGLCQHQEVLRVGAVFASGFIRAIKFLEKHWIELVRDIRTGTLSSLITDPSVREAVAKILKPSPKLADFVEFECKKSSWQGIITRLWPNTKYVDVIVTGTMSQYIPTLDYYSNGLPLVCTMYASSECYFGVNLRPLCKPSEVSYTLIPSMAYFEFLPVHRNNGVTNSINLPKALTEKEQQELVDLVDVKLGQEYELVVTTYAGLCRYRVGDLLRVTGFKNKAPQFSFICRKNVVLSIDSDKTDEVELQNAVKNAVTHLVPFDASLSEYTSYADTSSIPGHYVLFWELCLDGNTPIPPSVFEDCCLAVEESFNTVYRQGRVSDKSIGPLEIKIVEPGTFDKLMDYAISLGASINQYKTPRCVKFAPIIELLNSRVVDSYFSPKCPKWVPGHKQWGSN |
|  | binds | YFP^C-GH3.5 (enzyme, UniProt O81829 1-612) MPEAPKKESLEVFDLTLDQKNKQKLQLIEELTSNADQVQRQVLEEILTRNADVEYLRRHDLNGRTDRETFKNIMPVITYEDIEPEINRIANGDKSPILSSKPISEFLTSSGTSGGERKLMPTIEEELDRRSLLYSLLMPVMSQFVPGLENGKGMYFLFIKSESKTPGGLPARPVLTSYYKSSHFKERPYDPYTNYTSPNETILCSDSYQSMYSQMLCGLCQHQEVLRVGAVFASGFIRAIKFLEKHWIELVRDIRTGTLSSLITDPSVREAVAKILKPSPKLADFVEFECKKSSWQGIITRLWPNTKYVDVIVTGTMSQYIPTLDYYSNGLPLVCTMYASSECYFGVNLRPLCKPSEVSYTLIPSMAYFEFLPVHRNNGVTNSINLPKALTEKEQQELVDLVDVKLGQEYELVVTTYAGLCRYRVGDLLRVTGFKNKAPQFSFICRKNVVLSIDSDKTDEVELQNAVKNAVTHLVPFDASLSEYTSYADTSSIPGHYVLFWELCLDGNTPIPPSVFEDCCLAVEESFNTVYRQGRVSDKSIGPLEIKIVEPGTFDKLMDYAISLGASINQYKTPRCVKFAPIIELLNSRVVDSYFSPKCPKWVPGHKQWGSN |
